# Literature values, collected in patent US8969373B2, “HCV protease inhibitors” (Shanghai Tangrun Pharmaceuticals Co., Ltd., priority 2011, dated 2015).
# At least one structure is not confirmed: it was looked up by name or label, or the drawing left a doubt.
# Test system: HCV
# Settings: combined with standard treatment, clinical; cited from earlier work
smiles,measurement,value
CCC[C@H](NC(=O)[C@@H]1[C@H]2CCC[C@H]2CN1C(=O)[C@@H](NC(=O)[C@@H](NC(=O)c1cnccn1)C1CCCCC1)C(C)(C)C)C(=O)C(=O)NC1CC1 [telaprevir],cure rate,approximately 75%
